Values from PubChem BioAssay AID1259424 (University of Nebraska Medical Center, 2018).

Test: 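Find knockdowns that reproduce the expression shifts seen after KSR1 loss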 (primary screen)
Cell system: human HCT116 colon cancer cells
Reagent: siRNA pool against human genes, 50 nM
Measured: 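Six signature mRNAs by branched-DNA multiplex assay, scaled to two housekeeping genes and non-targeting median, log2; matched to mean KSR1 knockdown profile by Pearson correlation and euclidean distance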
Scale: mean correlation with KSR1 profile: higher = expression change more like KSR1 knockdown; mean distance from KSR1 profile: higher = expression change less like KSR1 knockdown
Shown is an unselected part of about 14,000 reagents tested. 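Higher correlation or smaller distance means closer resemblance to KSR1 loss; control wells, including KSR1 knockdowns, recur on many plates.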 Not all columns of the deposit are shown. Not stated in the record: the time to read-out.

After knock-down of MAGED1 (GeneID 9500), the record shows mean correlation with KSR1 profile -0.416; mean distance from KSR1 profile 3.13. Depletion of STAMBPL1 (GeneID 57559) gave: mean correlation with KSR1 profile -0.56; mean distance from KSR1 profile 2.47. After knock-down of GSTT2 (GeneID 2953), the record shows mean correlation with KSR1 profile -0.126; mean distance from KSR1 profile 1.69. ITGAX (GeneID 3687) gave mean correlation with KSR1 profile 0.333; mean distance from KSR1 profile 1.06. After knock-down of MORF4L2 (GeneID 9643), the screen gave mean correlation with KSR1 profile -0.422; mean distance from KSR1 profile 1.94. For TNP1 (GeneID 7141), the values are mean correlation with KSR1 profile -0.508; mean distance from KSR1 profile 2.11.

For USPL1 (GeneID 10208) the deposit lists mean correlation with KSR1 profile -0.524; mean distance from KSR1 profile 2.76. Knock-down of SPDL1 (GeneID 54908) came out at: mean correlation with KSR1 profile 0.192; mean distance from KSR1 profile 2.31. Depletion of EIF4EBP2 (GeneID 1979) resulted in: mean correlation with KSR1 profile 0.85; mean distance from KSR1 profile 1.11. Silencing of PCED1A (GeneID 64773) resulted in: mean correlation with KSR1 profile -0.543; mean distance from KSR1 profile 1.9. For PLEKHO1 (GeneID 51177) the deposit lists mean correlation with KSR1 profile -0.202; mean distance from KSR1 profile 1.86. ORC3 (GeneID 23595) showed mean correlation with KSR1 profile -0.473; mean distance from KSR1 profile 1.32.

Part of the list above, limited to “mean distance from KSR1 profile”.
PCED1A (GeneID 64773): 1.9
PLEKHO1 (GeneID 51177): 1.86
